# Measured values: publication PMC5996148
# Protein sequences, listed by entry. Tags and fused reporters are not part of them.
# UniProt O75821, whole entry: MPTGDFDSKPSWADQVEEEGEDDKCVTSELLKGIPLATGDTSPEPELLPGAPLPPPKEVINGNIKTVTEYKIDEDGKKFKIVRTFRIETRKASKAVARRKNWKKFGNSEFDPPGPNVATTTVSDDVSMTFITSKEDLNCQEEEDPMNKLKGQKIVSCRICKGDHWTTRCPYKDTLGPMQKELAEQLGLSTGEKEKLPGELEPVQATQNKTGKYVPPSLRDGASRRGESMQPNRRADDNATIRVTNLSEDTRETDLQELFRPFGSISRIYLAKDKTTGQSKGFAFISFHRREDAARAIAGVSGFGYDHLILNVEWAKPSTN
# UniProt P60228, whole entry: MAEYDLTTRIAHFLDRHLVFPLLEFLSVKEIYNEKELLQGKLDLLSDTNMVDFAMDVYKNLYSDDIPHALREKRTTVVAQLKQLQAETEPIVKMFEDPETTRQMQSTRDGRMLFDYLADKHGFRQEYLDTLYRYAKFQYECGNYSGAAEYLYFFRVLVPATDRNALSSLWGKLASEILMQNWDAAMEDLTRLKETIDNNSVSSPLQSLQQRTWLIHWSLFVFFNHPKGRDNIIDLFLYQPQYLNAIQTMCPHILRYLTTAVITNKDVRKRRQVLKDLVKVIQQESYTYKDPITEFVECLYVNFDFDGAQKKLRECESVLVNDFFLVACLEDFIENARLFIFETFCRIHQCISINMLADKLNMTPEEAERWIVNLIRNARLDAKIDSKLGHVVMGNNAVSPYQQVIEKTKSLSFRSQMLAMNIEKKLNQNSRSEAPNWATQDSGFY
# Several values for one entry are separate records, joined by “and”; a condition that tells them apart may be missing. Equal values may be shown once. Some of the results follow. For some assays here: The exact form of the protein is not confirmed.
# Legend:
# Test in all cases: protein microarray (ProtoArray v5.0), streptavidin-Alexa Fluor 647
# Settings in all cases: 3'-biotin; 20 mM Tris (pH 7.5), 5 mM MgCl2, 100 mM KCl, 0.1% Tween-20, A/T-rich and random oligonucleotide blockers; temperature not stated; high values mean tight binding
# EBF1 (human) = test system: EBF1 (human)
# ECE1 (human) = test system: ECE1 (human)
# ECE2 (human) = test system: ECE2 (human)
# EDF1 = biological target: T1, EDF1 (UniProt O60869)
# T1 sequence: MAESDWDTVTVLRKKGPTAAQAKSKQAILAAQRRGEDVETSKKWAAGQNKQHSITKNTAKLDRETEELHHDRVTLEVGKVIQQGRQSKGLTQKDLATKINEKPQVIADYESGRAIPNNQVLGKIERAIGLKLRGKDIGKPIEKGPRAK
# EFCBP1 (human) = test system: EFCBP1 (human)
# EFTUD2 (human) = test system: EFTUD2 (human)
# EGFL8 (human) = test system: EGFL8 (human)
# EIF2B2 (human) = test system: EIF2B2 (human)
# EIF3M (human) = test system: EIF3M (human)
# EIF3S4 = EIF3S4 (UniProt O75821)
# EIF3S6 = EIF3S6 (UniProt P60228)
# EIF4EBP3 = biological target: T2, EIF4EBP3 (UniProt O60516)
# T2 sequence: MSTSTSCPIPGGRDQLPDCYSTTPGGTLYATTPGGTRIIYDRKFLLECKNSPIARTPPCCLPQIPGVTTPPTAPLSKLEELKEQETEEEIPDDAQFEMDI
# EIF5A2 (human) = test system: EIF5A2 (human)
# ELA3A (human) = test system: ELA3A (human)
# EMILIN1 (human) = test system: EMILIN1 (human)
# ENO2 (human) = test system: ENO2 (human)
# ENTPD1 (human) = test system: ENTPD1 (human)
# EP400NL (human) = test system: EP400NL (human)
# ERCC6L (human) = test system: ERCC6L (human)
# ETFB (human) = test system: ETFB (human)
sequence,measurement,setting,value
GGTGACAGGGGTATGGGGAGGGG [G4-2 biotinylated (Ct1)],binding signal,EBF1 (human),-0.378 z-score
same,binding signal,ECE1 (human),-0.38 z-score
same,binding signal,ECE2 (human),-0.391 z-score
same,binding signal,EDF1,3.22 z-score
same,binding signal,EFCBP1 (human),-0.385 z-score
same,binding signal,EFTUD2 (human),-0.376 z-score
same,binding signal,EGFL8 (human),-0.374 z-score
same,binding signal,EIF2B2 (human),-0.401 z-score
same,binding signal,EIF3M (human),-0.376 z-score
same,binding signal,EIF3S4,5.71 z-score
same,binding signal,EIF3S6,-0.393 z-score
same,binding signal,EIF4EBP3,-0.36 z-score
same,binding signal,EIF5A2 (human),-0.379 z-score
same,binding signal,ELA3A (human),-0.376 z-score and -0.39 z-score
same,binding signal,EMILIN1 (human),-0.395 z-score
same,binding signal,ENO2 (human),-0.38 z-score
same,binding signal,ENTPD1 (human),-0.368 z-score
same,binding signal,EP400NL (human),-0.391 z-score
same,binding signal,ERCC6L (human),-0.39 z-score
same,binding signal,ETFB (human),-0.379 z-score

# Random excerpt: two entries already listed.
sequence,measurement,setting,value
GGTGACAGGGGTATGGGGAGGGG [G4-2 biotinylated (Ct1)],binding signal,EIF3M (human),-0.376 z-score
same,binding signal,EP400NL (human),-0.391 z-score
